Reference: PubChem BioAssay AID2685 (National Center for Advancing Translational Sciences (NCATS), 2010)
This is one part of the list. Further columns of the screen follow, without active or inactive calls. Most of these compounds were active or inconclusive in the main read-out, so they are no random draw. Potencies come from curve fits of mixed quality, noted in brackets.

Experiment: qHTS Assay for Lipid Storage Modulators in Drosophila S3 Cells;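 as to cell number change: cells counted by Cell Tracker Red CMTPX staining in the red channel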
Settings: BODIPY lipid droplet fluorescence, 18-24 h; for cell number change: measured here: cell count max response, cells fed with added oleic acid
Outline: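 Drosophila S3 cells got compounds at several concentrations plus oleic acid (400 uM solution). Laser-scanning cytometry with 488 nm excitation read lipid droplets at 500-530 nm and cells at 575-640 nm. Percent activity was relative to 20 uM Triacsin C.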

[1] = measured here: lipid fluorescence (Fed channel) AC50, cells fed with added oleic acid
[2] = measured here: cell number channel AC50, cells fed with added oleic acid

Row | SMILES | cell number change | AC50 [1] | AC50 [2]
1 | CCCC(=O)OC1CC(C)N(C(=O)c2ccccc2)c2ccc(C)cc21 (stereo not drawn) | -24.9% | 29.1 µM [falling, single point] | 
2 | COc1ccc(OC)c(NC(=S)NCCSc2ccc(C)cc2)c1 |  | 23.1 µM [falling, partial curve, poor fit] | 
3 | CCC(C)(C)NC(=O)c1ccccc1Oc1ccccc1 | 99.7% |  | 0.651 µM [falling, partial curve]
4 | COc1ccc(CC(=O)NC2CCS(=O)(=O)C2)cc1 (stereo not drawn) | 3.38% | 29.1 µM [falling, single point] | 
5 | OC1(c2ccc3ccccc3c2)CCN(Cc2ccccc2)C1 (stereo not drawn) | 17.8% |  | 
6 | O=C(N/N=C/c1cccnc1)c1cccs1 | 13% | 7.31 µM [rising, single point] | 
7 | Nn1cnnc1N/N=C/c1ccc(F)cc1 | -11.1% | 20.6 µM [falling, single point] | 
8 | CC1CCCN(CCCNC(=O)c2coc3nc4ccccc4nc23)C1 (stereo not drawn) | 134% |  | 0.0731 µM [falling, full curve, poor fit]
9 | Cn1c(=NC(=O)COc2ccccc2)sc2ccccc21 | 31.8% | 0.92 µM [rising, full curve, poor fit] | 0.082 µM [rising, full curve, poor fit]
10 | COC(=O)c1ccc(-n2nnnc2SCc2nn[nH]n2)cc1 | -19.7% |  | 0.731 µM [falling, full curve]
11 | COC(=O)c1ccc(Sc2ccccn2)c([N+](=O)[O-])c1 | 171% | 5.8 µM [rising, full curve] | 6.51 µM [rising, full curve]
12 | CC(Sc1cnc2ccccc2n1)C(=O)O (stereo not drawn) |  | 0.116 µM [rising, full curve, poor fit] | 
13 | Cc1nc2ccccc2c(C)c1CC(=O)OC(C)C(=O)NC1(C#N)CCCCC1 (stereo not drawn) |  |  | 3.66 µM [rising, partial curve]
14 | C#CCOC(=O)Nc1ccc(=O)n(Cc2c(Cl)cccc2Cl)c1 |  | 16.4 µM [rising, single point] | 
15 | CC1CCCCN1CCNC(=O)CC1Oc2ccccc2NC1=O (stereo not drawn) | 7.49% | 0.164 µM [rising, full curve, poor fit] | 
16 | CC(C)Cn1c2c(c(O)c(C(=O)Nc3ncccc3O)c1=O)CCCC2 |  | 0.651 µM [falling, single point] | 
17 | Cc1cccc(C(=O)NNC(=O)c2ccc(F)cc2)c1 | -15.7% | 9.2 µM [rising, partial curve] | 3.66 µM [falling, partial curve]
18 | COc1ccc(/C=C/C(=O)Nc2ccc(S(=O)(=O)Nc3onc(C)c3C)cc2)cc1OC | 8.56% | 35.5 µM [rising, single point] | 
19 | CC(=O)NC(Cc1cccc(F)c1)C(=O)NC1CCN(C(=O)c2ccc(C)cc2)CC1 (stereo not drawn) | 7.4% |  | 6.51 µM [falling, single point]
20 | CCOc1ccc(NC(=O)CN(C)c2ccc(S(=O)(=O)N(C(C)C)C(C)C)cn2)cc1OCC | -3.57% | 4.11 µM [rising, single point] | 
21 | Cc1ccc(NC2=NCC(=O)N2Cc2cccs2)cc1C | -13.7% | 0.164 µM [falling, full curve, poor fit] | 

Looked up above:
AC50 [1] with O=C(N/N=C/c1cccnc1)c1cccs1 is entered as 7.31 µM [rising, single point]
cell number change with Cc1cccc(C(=O)NNC(=O)c2ccc(F)cc2)c1 is entered as -15.7%
AC50 [1] with CC(Sc1cnc2ccccc2n1)C(=O)O (stereo not drawn) is entered as 0.116 µM [rising, full curve, poor fit]
AC50 [1] with CC(C)Cn1c2c(c(O)c(C(=O)Nc3ncccc3O)c1=O)CCCC2 is entered as 0.651 µM [falling, single point]
cell number change with OC1(c2ccc3ccccc3c2)CCN(Cc2ccccc2)C1 (stereo not drawn) is entered as 17.8%

Remaining list, next part:

Row | SMILES | cell number change | AC50 [1] | AC50 [2]
22 | Cn1nnnc1SCc1nc2ccccc2s1 | 0.262% |  | 
23 | COc1cc(CCC(=O)OCC(=O)NCc2ccc(Cl)cc2)cc(OC)c1OC | 126% |  | 
24 | O=C(O)CCC(=O)NCc1ccc(C(=O)O)cc1 | -31.4% | 20.6 µM [falling, partial curve] | 0.058 µM [falling, full curve, poor fit]
25 | Cc1ccc(/C=C2\CCCC3=C2NC(=S)NC3c2ccc(C)cc2)cc1 (stereo not drawn) | 6.33% | 0.731 µM [falling, full curve, poor fit] | 
26 | Cc1ccc(C)c(OCCC(=O)OCC(=O)NC(=O)NCc2ccccc2)c1 | 7.63% |  | 
27 | Cc1c(C(=O)NCCCN2CCCC2=O)oc2ccccc12 | 1.56% |  | 
28 | CC(C)N1C(=O)C(=O)N(CC(=O)N(C)c2ccccc2)C1=O | 20.8% | 1.84 µM [rising, partial curve, poor fit] | 
29 | Cc1cc(C)c(-c2cc(NC(=O)COC(=O)c3ccc(CO)cc3)n(-c3ccccc3)n2)cc1C | -8.83% | 1.64 µM [rising, partial curve] | 
30 | O=C(O)/C=C/c1cnn(-c2ccccc2)c1 | -12.2% | 0.0651 µM [falling, full curve] | 
31 | CCOCCCNC(=O)C(c1ccc(Cl)cc1)N(Cc1cccs1)C(=O)c1ccccn1 (stereo not drawn) | -16.2% | 18.4 µM [falling, single point] | 
32 | Cc1ccc(-c2nnc3ccc(SCC(=O)N4CCc5ccccc54)nn23)cc1 |  | 0.291 µM [rising, partial curve, poor fit] | 
33 | COc1cccc(-n2c(Cc3cc(=O)[nH]c(=O)[nH]3)nnc2SCC(=O)NC2CCCCC2)c1 | 40.2% | 29.1 µM [rising, single point] | 16.4 µM [rising, partial curve]
34 | Cc1ccc(CNC(=O)CC(C)S(=O)(=O)c2ccc3c(c2)NC(=O)C(C)S3)cc1 (stereo not drawn) | -21.9% | 29.1 µM [falling, single point] | 
35 | O=C(Cc1ccccc1)Nc1ccccc1C(=O)NCC1CCCO1 (stereo not drawn) | -16.2% |  | 
36 | CCn1c(=O)c([N+](=O)[O-])c(NCCc2ccc(OC)c(OC)c2)c2ccccc21 |  | 13 µM [rising, partial curve, poor fit] | 
37 | COc1ccc(NC(=O)Nc2ccccc2C(N)=O)cc1OC | 1.66% | 0.58 µM [rising, single point] | 
38 | CSc1ccc(COC(=O)CCS(=O)(=O)c2ccc(C)cc2)cc1 |  |  | 6.51 µM [falling, single point]
39 | O=C(/C=C/c1c(Cl)cccc1Cl)Nc1ccncc1 | 3.47% | 0.651 µM [falling, single point] | 0.651 µM [falling, single point]
40 | O=C1/C(=C\c2ccccc2Cl)SC(=S)N1CCC(=O)N1CCCc2ccccc21 | 0.704% | 0.82 µM [rising, full curve, poor fit] | 
41 | CCC(C(=O)Nc1ccncc1)c1ccccc1 (stereo not drawn) | -13.9% | 29.1 µM [falling, single point] | 
42 | COc1ccc(NC(=O)C2C3C=CC4(O3)C2C(=O)N(CCN2CCCCC2)C4C(=O)NC2CCCCC2)cc1 (stereo not drawn) | 2.86% | 29.1 µM [rising, partial curve] | 

Row | SMILES | cell number change | AC50 [1] | AC50 [2]
43 | CC(C)c1nnc(NC(=O)CSc2ncn[nH]2)s1 | 9.09% |  | 0.103 µM [rising, full curve, poor fit]
44 | Cc1ccccc1S(=O)(=O)Cc1ccc(C(=O)NC2CCC(C)CC2)o1 (stereo not drawn) |  | 1.84 µM [falling, partial curve] | 
45 | O=C(Cc1ccc(Cl)cc1Cl)Nc1cccc(S(=O)(=O)Nc2ccccc2F)c1 | -35.3% |  | 1.16 µM [falling, full curve, poor fit]
46 | C/C(=N\NC(=O)Cc1ccc(Cl)cc1)c1cccc(NC(=O)c2cccnc2)c1 | -23.8% |  | 0.13 µM [falling, full curve, poor fit]
47 | Cc1ccc2nc(-c3ccc(SCC(=O)Nc4nc(C)cs4)nc3)[nH]c2c1 | -45.1% | 18.4 µM [falling, partial curve] | 20.6 µM [falling, partial curve, poor fit]
48 | Cc1ccc(/C=C/C(=O)Nc2cc(S(=O)(=O)N3CCOCC3)ccc2N2CCOCC2)cc1 | 24.6% | 2.31 µM [rising, full curve, poor fit] | 1.84 µM [rising, full curve, poor fit]
49 | N#Cc1cccc(C(=O)OCC(=O)NC(=O)NC2CCCCC2)c1 | 12% |  | 
50 | CCOC(=O)c1ccccc1NS(=O)(=O)c1ccccc1F | 8.33% | 3.66 µM [rising, partial curve] | 6.51 µM [rising, single point]
51 | Cc1cccc(NC(=O)CC2NCCNC2=O)c1 (stereo not drawn) |  | 0.164 µM [falling, full curve, poor fit] | 
52 | CCc1ccc(-n2c(C)cc(/C=N/NC(=O)c3ccncc3)c2C)cc1 | 26.4% |  | 
53 | COCCNC(=O)C(c1ccc(C)o1)N(CC1CCCO1)C(=O)Cn1nnc2ccccc21 (stereo not drawn) | 15.1% |  | 
54 | Cc1ccc(CNC(=O)c2sccc2-n2cccc2)cc1 | 30.2% |  | 0.206 µM [rising, full curve, poor fit]
55 | O=C(COC(=O)Cc1c(F)cccc1Cl)Nc1nnc(-c2ccccc2)o1 | 17.1% |  | 0.231 µM [rising, full curve, poor fit]
56 | CN(c1ccccc1)S(=O)(=O)c1cccc(NC(=O)c2cc3ccccc3oc2=O)c1 | 11.6% |  | 
57 | O=c1cc(CS(=O)(=O)c2ccccc2)nc(-c2ccncc2)[nH]1 | -39.1% | 5.17 µM [falling, full curve] | 6.51 µM [falling, full curve]
58 | O=C(O)/C=C/c1ccc(S(=O)(=O)NCc2ccco2)cc1 | -13.9% |  | 
59 | O=c1c(-c2ccccc2)coc2c(CN3CCOCC3)c(O)ccc12 | -63.8% |  | 32.6 µM [falling, single point]
60 | Cc1ccc2oc(-c3cccc(NC(=O)Cc4cccs4)c3)nc2c1 | -45.6% | 18.4 µM [falling, partial curve] | 25.9 µM [falling, partial curve]
61 | O=C(Nc1cc(S(=O)(=O)N2CCOCC2)ccc1N1CCOCC1)c1ccccc1F | 21.1% |  | 0.651 µM [rising, full curve, poor fit]
62 | O=C(Nc1cccc(S(=O)(=O)N2CCCC2)c1)c1cc(-c2ccccn2)nc2ccccc12 |  |  | 3.66 µM [rising, single point]
